Results on 21 molecules are retold here after PubChem BioAssay AID256 (DTP/NCI, 2004).

SMILES strings stand for the structures. The list is a part of this screen's results and no random one: it gathers tests that were run many times, whatever their T/C, doses with no T/C, and many T/C values between a quarter and a half above the control. Further doses and runs are listed elsewhere. T/C is the treated group as % of the vehicle group. Some doses have a count of surviving animals in place of a T/C: the source files T/C as zero there, which appears to mark a toxic dose or a test without result, not a measured value. Some doses without a T/C left all or most animals alive at the check, yet need not have been tolerated: survival well below the control is almost never listed, so the zero probably covers shortened survival too. Counts of survivors are from the toxicity check (mostly the fifth day) where no day follows; animals may have died later. Schedules are NCI's codes, taken here to give the interval after Q, in days (D) or hours (H), and the number of doses after X. Some entries were tested several times; the values are given in rising order. Where survival is the endpoint, the PubChem record calls one and a half times the control and up active, and a quarter to a half above the control has no call in these data; cut-offs in other NCI protocols can differ. Some T/C values carry the count of animals alive at the toxicity check (mostly the fifth day); without a count, all were alive then.

This assay concerns CD2F1 mice, L1210 leukemia ip, survival T/C. The experiment in a line: NCI In Vivo Anticancer Drug Screen. Data for tumor model L1210 Leukemia (intraperitoneal) in CD2F1 (CDF1) mice. The following applies: higher T/C = longer survival. An outline of the steps:
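Mice carrying a transplanted tumor received test compound or vehicle alone. The value is the measurement in the treated group divided by that in the vehicle-treated control group.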

Where [1] appears, read: T/C endpoint: mean survival time, dose: 400.0 mg/kg/injection, schedule: Q01DX001 (ip), vehicle: saline with Tween-80.
[2] abbreviates: T/C endpoint: median survival time, dose: 12.5 mg/kg/injection, schedule: Q04DX003 (ip), vehicle: saline.
Where [3] appears, read: T/C endpoint: mean survival time, dose: 200.0 mg/kg/injection, schedule: Q04DX003 (ip), vehicle: saline with Tween-80.
Setting [4] is: T/C endpoint: mean survival time, dose: 100.0 mg/kg/injection, schedule: Q04DX003 (ip), vehicle: saline with Tween-80.
[5] abbreviates: T/C endpoint: mean survival time, dose: 400.0 mg/kg/injection, schedule: Q04DX003 (ip), vehicle: saline with Tween-80.
Setting [6] is: T/C endpoint: mean survival time, dose: 400.0 mg/kg/injection, schedule: Q04DX002 (ip), vehicle: saline with Tween-80.
[7] abbreviates: T/C endpoint: mean survival time, dose: 300.0 mg/kg/injection, schedule: Q01DX001 (ip), vehicle: saline.

In the case of `COc1ccc(C2=CC(c3ccccc3)C(c3ccccc3)C(=O)N2)cc1` (stereo unspecified), the survivor count (T/C endpoint: mean survival time, dose: 50.0 mg/kg/injection, schedule: Q04DX002 (ip), vehicle: saline with Tween-80) was 3 of 3 and the survivor count (T/C endpoint: mean survival time, dose: 100.0 mg/kg/injection, schedule: Q04DX002 (ip), vehicle: saline with Tween-80) is 3 of 3.
Take `Oc1ccc(CCl)cc1O`: the survivor count (T/C endpoint: mean survival time, dose: 200.0 mg/kg/injection, schedule: Q01DX001 (ip), vehicle: saline with Tween-80) is reported as 0 of 3 and the survivor count under setting [1] is reported as 0 of 3.
For `Oc1ccccc1/C=N/c1nc(-c2ccccc2)cs1.[Co].[O-]c1ccccc1/C=N/c1nc(-c2ccccc2)cs1`, the survivor count (T/C endpoint: mean survival time, dose: 100.0 mg/kg/injection, schedule: Q01DX001 (ip), vehicle: saline with Tween-80) was 3 of 3.
As for `NC1CCCCC1N.O=S(=O)([O-])CCCNC1CCCCC1.O=S(=O)([O-])CCCNC1CCCCC1.[Pt+4]`, the T/C under setting [2] is 144 % of control. The survivor count is, setting by setting: under setting [2], 6 of 6; (T/C endpoint: median survival time, dose: 25.0 mg/kg/injection, schedule: Q04DX003 (ip), vehicle: saline) 5 of 6 and 6 of 6; (T/C endpoint: median survival time, dose: 50.0 mg/kg/injection, schedule: Q04DX003 (ip), vehicle: saline) 1 of 6; (T/C endpoint: median survival time, dose: 100.0 mg/kg/injection, schedule: Q04DX003 (ip), vehicle: saline) 0 of 6; (T/C endpoint: median survival time, dose: 200.0 mg/kg/injection, schedule: Q04DX003 (ip), vehicle: saline) 0 of 6.
Consider `Cn1c2c(c3ccccc31)C(=O)CC2(C)C`, for which the survivor count reads like this: under setting [3], 4 of 6; under setting [1], 1 of 6.
For the molecule `C(=Nc1ccccc1)c1ccc(C=Nc2ccccc2)cc1`, under “T/C endpoint: mean survival time, dose: 400.0 mg/kg/injection, schedule: Q01DX009 (ip), vehicle: saline with Tween-80”, the survivor count was 6 of 6.
As to `C[N+](C)(CC(=O)Nc1cccc(C(F)(F)F)c1)CC(=O)Nc1cccc(C(F)(F)F)c1`, the survivor count is 6 of 6 (T/C endpoint: mean survival time, dose: 12.5 mg/kg/injection, schedule: Q04DX003 (ip), vehicle: saline with Tween-80); 4 of 6 under setting [4]; 2 of 6 under setting [3]; 0 of 6 under setting [5].
As for `O=C(O)CCN1CCCc2ccccc21`, the survivor count (T/C endpoint: mean survival time, dose: 400.0 mg/kg/injection, schedule: Q01DX009 (ip), vehicle: other) was 0 of 6.
With `COc1c(NC(=O)Nc2cccc(Cl)c2)cccc1[N+](=O)[O-]`, under setting [6], the survivor count is listed as 3 of 3.
For `C/C=C\C1OC1(C)c1cc(=O)c2c(C)cc3c(c2o1)C(=O)c1c(O)c(C2CC(C)(N(C)C)C(OC(C)=O)C(C)O2)cc(C2CC(N(C)C)C(O)C(C)O2)c1C3=O` (stereo unspecified), the T/C runs as follows: (T/C endpoint: mean survival time, dose: 0.7 mg/kg/injection, schedule: Q04DX003 (ip), vehicle: saline with Tween-80) 127 % of control; (T/C endpoint: mean survival time, dose: 1.4 mg/kg/injection, schedule: Q04DX003 (ip), vehicle: saline with Tween-80) 134 % of control; (T/C endpoint: mean survival time, dose: 2.8 mg/kg/injection, schedule: Q04DX003 (ip), vehicle: saline with Tween-80) 127 % of control; (T/C endpoint: median survival time, dose: 0.5 mg/kg/injection, schedule: Q01DX005 (ip), vehicle: saline + alcohol) 127 % of control; (T/C endpoint: median survival time, dose: 0.6 mg/kg/injection, schedule: Q01DX005 (ip), vehicle: saline + alcohol) 129 % of control; (T/C endpoint: median survival time, dose: 1.0 mg/kg/injection, schedule: Q01DX005 (ip), vehicle: saline + alcohol) 131 % of control. Also, the T/C was 139 % of control (T/C endpoint: median survival time, dose: 1.67 mg/kg/injection, schedule: Q01DX005 (ip), vehicle: saline + alcohol); 127 % of control (T/C endpoint: median survival time, dose: 2.0 mg/kg/injection, schedule: Q01DX005 (ip), vehicle: saline + alcohol); 127 % of control [5 of 6 alive] (T/C endpoint: median survival time, dose: 4.0 mg/kg/injection, schedule: Q01DX005 (ip), vehicle: saline + alcohol); 143 % of control [5 of 6 alive] (T/C endpoint: median survival time, dose: 4.63 mg/kg/injection, schedule: Q01DX005 (ip), vehicle: saline + alcohol).
As to `O=[N+]([O-])c1ccc(S(=O)Cc2ccccc2)c([N+](=O)[O-])c1` (stereo unspecified), the survivor count by setting is: (T/C endpoint: mean survival time, dose: 150.0 mg/kg/injection, schedule: Q01DX001 (ip), vehicle: other) 1 of 6; (T/C endpoint: mean survival time, dose: 300.0 mg/kg/injection, schedule: Q01DX001 (ip), vehicle: other) 0 of 6.
Turning to `CN(C)CC1CCCCCC(Br)C1O` (stereo unspecified), the survivor count under setting [7] is reported as 0 of 6.
As to `CCCCOc1nc(-c2ccncc2)nc(N(C)C)n1`, the survivor count is 0 of 3 (T/C endpoint: mean survival time, dose: 200.0 mg/kg/injection, schedule: Q01DX002 (ip), vehicle: saline) and 0 of 3 (T/C endpoint: mean survival time, dose: 400.0 mg/kg/injection, schedule: Q01DX002 (ip), vehicle: saline).
Regarding `CCCCn1cnc2c(=S)nc(N)[nH]c21`, the T/C (T/C endpoint: mean survival time, dose: 25.0 mg/kg/injection, schedule: Q04DX003 (ip), vehicle: saline with Tween-80) is 145 % of control; the T/C (T/C endpoint: mean survival time, dose: 33.0 mg/kg/injection, schedule: Q04DX003 (ip), vehicle: saline with Tween-80) was 143 % of control; the T/C (T/C endpoint: mean survival time, dose: 50.0 mg/kg/injection, schedule: Q04DX003 (ip), vehicle: saline with Tween-80) is 145 % of control; the T/C (T/C endpoint: mean survival time, dose: 75.0 mg/kg/injection, schedule: Q04DX003 (ip), vehicle: saline with Tween-80) is 130 % of control; the T/C (T/C endpoint: mean survival time, dose: 100.0 mg/kg/injection, schedule: Q01DX009 (ip), vehicle: saline with Tween-80) is 138 % of control; the T/C under setting [4] is 140 % of control.
With `N#Cc1cn(C2OC(CO)C3OC32)c2ncnc(NC(=O)c3ccccc3)c12` (stereo unspecified), the survivor count (T/C endpoint: mean survival time, dose: 400.0 mg/kg/injection, schedule: Q01DX005 (ip), vehicle: distilled water + Tween-80) was 0 of 6.
`O=S(=O)(O)c1ccccc1N=Nc1c(S(=O)(=O)O)cc2cc(S(=O)(=O)O)c(N=Nc3ccccc3S(=O)(=O)O)c(O)c2c1O`: under setting [5], the survivor count is 2 of 6.
With `N/C(=N/O)c1cn(C2OC(CO)C(O)C2O)c2nc[nH]c(=O)c12` (stereo unspecified), the survivor count runs as follows: (T/C endpoint: mean survival time, dose: 67.0 mg/kg/injection, schedule: Q01DX009 (ip), vehicle: saline) 5 of 6; (T/C endpoint: mean survival time, dose: 100.0 mg/kg/injection, schedule: Q01DX009 (ip), vehicle: saline) 0 of 6; (T/C endpoint: mean survival time, dose: 150.0 mg/kg/injection, schedule: Q01DX009 (ip), vehicle: saline) 0 of 6; (T/C endpoint: mean survival time, dose: 225.0 mg/kg/injection, schedule: Q01DX009 (ip), vehicle: saline) 0 of 6; (T/C endpoint: mean survival time, dose: 300.0 mg/kg/injection, schedule: Q01DX001 (ip), vehicle: water) 0 of 6. Also, the T/C (T/C endpoint: mean survival time, dose: 150.0 mg/kg/injection, schedule: Q01DX001 (ip), vehicle: water) is 128 % of control.
`CN(C)CN1C(=O)S/C(=C2\C(=O)N(CN(C)C)c3ccccc32)C1=O`: the survivor count (T/C endpoint: median survival time, dose: 400.0 mg/kg/injection, schedule: Q01DX005 (ip), vehicle: Klucel (hydroxypropylcellulose) (HPC)) is listed as 2 of 6.
As for `COc1ccc2c(c1O)C1CCCCC13CCN(C)C3C2` (stereo unspecified), the survivor count (T/C endpoint: mean survival time, dose: 200.0 mg/kg/injection, schedule: Q04DX002 (ip), vehicle: saline with Tween-80) is given as 0 of 3 and the survivor count under setting [6] was 0 of 3.
Regarding `CC(NC(=O)C(CSC(c1ccccc1)(c1ccccc1)c1ccccc1)NC(c1ccccc1)(c1ccccc1)c1ccccc1)C(=O)O` (stereo unspecified), the survivor count is 5 of 6 (T/C endpoint: mean survival time, dose: 75.0 mg/kg/injection, schedule: Q01DX001 (ip), vehicle: saline) and 1 of 6 under setting [7].
For the molecule `OC(C1CCCCN1)C1CC(c2ccccc2)Nc2c(Cl)cc(Cl)cc21` (stereo unspecified), the survivor count (T/C endpoint: mean survival time, dose: 200.0 mg/kg/injection, schedule: Q04DX003 (ip), vehicle: saline) was 0 of 6 and the survivor count (T/C endpoint: mean survival time, dose: 400.0 mg/kg/injection, schedule: Q04DX003 (ip), vehicle: saline) is recorded as 0 of 6.
